Measurements as given in PubChem BioAssay AID1347426 (Functional Genomics Laboratory (NCATS/FGL), 2020).
Among all 31,000 sequences or so, about 1,400 (4.5%) were called active.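 Rule for the calls: active = median seed-adjusted z-score above 1 or below -1; inactive = the rest.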 Some of the results follow.

Assay: Novel Modifiers of Survival Motor Neuron (SMN) Protein: Gene Identification via Genome-wide siRNA Screen;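 note: luminescence tracks full-length SMN protein made from the SMN2 reporter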
Conditions: HEK293T SMN2-luciferase reporter, siRNA knockdown, 72 h; actives lie on both sides
How it was run: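 HEK293T cells stably carrying an SMN2 promoter/splicing cassette–luciferase reporter were reverse-transfected with 1 pmol siRNA per well (druggable-genome library, 3 siRNAs per gene) and grown 72 h at 37 °C. Luminescence, normalized to negative-control siRNA and log10-transformed, was scored as MAD.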

Sequence	median seed-adjusted z-score
GAGCAUCCACAAGAAUCUATT against GCAT	inactive: 0.672
GCUGGGCAGAUGACCUCUATT against HCRTR1	inactive: 0.739
GGAGGACUGUUGGAAUUGUTT against PCCB	inactive: 0.137
CUCCUGUACUCUUCAGAGATT against PTOV1	inactive: 0.115
CACUCACACCAUCCUAUGATT against GNG13	inactive: -0.516
GGCUAUUUUUGAUCACAUUTT against NAT2	inactive: -0.0495
CAAUCUAUCAACAACUAAATT against TACR3	inactive: 0.0904
CCAGCGAGCUGAUCCUCAATT against MYCN	inactive: 0.00242
CAGGAUCCUUUAUUAUACATT against VPS13B	inactive: 0
GGAGUUACAUAUAAUCCUATT against PRSS7	inactive: 0.0614
GAUUUGACAUAGAUGAAGATT against METTL5	inactive: 0.221
CAUUAGCAGAUAUACUAUUTT against EEF1E1	active: -1.45
GCCGUUCUGUUUCAAAGGATT against ACTR10	inactive: 0.362
CGUCCAAAAUCCAAAUAUATT against ABCG5	inactive: 0.739
GAAGAUACAUAAGAUCGUATT against ZNF141	inactive: 0.223
ACAAGACCCUCUCAAAAGATT against NEFH	inactive: 0.688
GGAGUUACAUUACUUCGUUTT against UQCRC2	inactive: -0.848
GGAUGGACCUGACUUUCAATT against TXN2	inactive: 0.87
GGCUGUCCGACUCAACAUATT against SIGLEC12	inactive: 0.226
CUGUUGUAAUGACAUCAUUTT against ELF2	inactive: -0.514
ACAUUACUCUGGGAUUUAUTT against LARGE	inactive: -0.436
GGCAAUCCGGGAAGACUAATT against ADAR	inactive: 0.267
AGCUAGACCUGUGCAAAGATT against IRX5	inactive: -0.373
GCGUCGGAGUUUCGAAAGATT against ADM	inactive: 0.65
CCAUGUCCCAGGAAGCACATT against TCAP	inactive: -0.177
CCAACUACUCCCUCAAGUATT against CRLF1	inactive: -0.45
CGUGUACCCGUUUGACUUUTT against SGSH	inactive: 0.383
GAGAGACCAUUGUCCAGCUTT against SRPK3	inactive: -0.643
GAGUGUCAUGGACCUGAUATT against LCN6	inactive: 0.584
GAAUGAACUCUUUACAGAUTT against MLYCD	inactive: -0.154

In another format: results already given.
Sequence | median seed-adjusted z-score
GAUUUGACAUAGAUGAAGATT against METTL5 | inactive: 0.221
CAUUAGCAGAUAUACUAUUTT against EEF1E1 | active: -1.45
GCCGUUCUGUUUCAAAGGATT against ACTR10 | inactive: 0.362
CGUCCAAAAUCCAAAUAUATT against ABCG5 | inactive: 0.739
GAAGAUACAUAAGAUCGUATT against ZNF141 | inactive: 0.223
ACAAGACCCUCUCAAAAGATT against NEFH | inactive: 0.688
GGAGUUACAUUACUUCGUUTT against UQCRC2 | inactive: -0.848
